According to PMC5625491:
Results are given in words; binding and its absence hold for the method and conditions named. Binding seen in cells or lysates may run through a third protein. Some binding calls cover weakened binding; strength is not graded here.

Sequences of proteins named here, by UniProt entry; tags and fusion partners are left off.
UniProt P10217: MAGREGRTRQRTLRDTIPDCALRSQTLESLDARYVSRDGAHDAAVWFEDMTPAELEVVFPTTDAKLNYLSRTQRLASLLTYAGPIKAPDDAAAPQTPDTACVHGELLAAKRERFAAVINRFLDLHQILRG

T1: UL28 protein (pUL28) of herpes simplex virus 1 (herpes simplex virus 1, strain F [HSV-1(F)]) (UniProt P10212)
T1 sequence: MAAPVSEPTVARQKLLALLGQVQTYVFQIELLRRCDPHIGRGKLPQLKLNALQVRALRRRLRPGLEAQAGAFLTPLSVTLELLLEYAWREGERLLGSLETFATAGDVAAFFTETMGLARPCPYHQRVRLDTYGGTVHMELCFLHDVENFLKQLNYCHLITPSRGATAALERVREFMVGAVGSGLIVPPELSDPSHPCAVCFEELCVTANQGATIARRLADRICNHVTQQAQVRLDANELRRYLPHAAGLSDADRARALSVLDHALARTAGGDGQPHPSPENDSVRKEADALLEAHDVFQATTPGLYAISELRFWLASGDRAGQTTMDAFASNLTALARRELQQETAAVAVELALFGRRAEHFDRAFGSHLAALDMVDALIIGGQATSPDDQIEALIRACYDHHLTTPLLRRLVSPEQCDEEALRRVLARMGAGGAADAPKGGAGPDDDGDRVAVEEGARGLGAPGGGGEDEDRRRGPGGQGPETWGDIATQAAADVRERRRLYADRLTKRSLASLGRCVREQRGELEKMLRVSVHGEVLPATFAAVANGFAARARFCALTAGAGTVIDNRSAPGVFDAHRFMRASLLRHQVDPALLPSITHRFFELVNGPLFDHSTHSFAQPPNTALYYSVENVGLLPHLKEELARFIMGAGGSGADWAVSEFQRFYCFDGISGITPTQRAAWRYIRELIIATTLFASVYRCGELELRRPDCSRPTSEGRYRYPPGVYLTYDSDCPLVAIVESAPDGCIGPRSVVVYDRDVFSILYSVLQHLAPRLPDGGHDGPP

B1: UL28 protein (pUL28) of herpes simplex virus 1 (protein, UniProt P10212 1-785)
chain: T1 sequence

Assays:
[1] = molecular target: T1, UL28 protein (pUL28) of herpes simplex virus 1 (herpes simplex virus 1, strain F [HSV-1(F)]); experiment: co-IP; CV1 cells infected at MOI 5, lysed 18 h p.i. in RIPA buffer (50 mM Tris-HCl pH 7.4, 150 mM NaCl, 1% NP-40, 0.25% sodium deoxycholate, 1 mM EDTA); precipitated with anti-pUL28 antibody, blot probed for pUL33 (Fig. 2B)
[2] = molecular target: UL33-encoded protein (pUL33) of herpes simplex virus 1, wild type (herpes simplex virus 1, strain F [HSV-1(F)]) (UniProt P10217); experiment: co-IP; CV1 cells infected at MOI 5, lysed 18 h p.i. in RIPA buffer (50 mM Tris-HCl pH 7.4, 150 mM NaCl, 1% NP-40, 0.25% sodium deoxycholate, 1 mM EDTA); precipitated with anti-pUL33 antibody, blot probed for pUL28 (Fig. 2A)

Row | Molecule | binding [1] | binding [2]
1 | UL33-encoded protein (pUL33) of herpes simplex virus 1, wild type (from UniProt P10217 1-130) | binds | –
2 | B1 | – | binds
